These results are taken from publication PMC10035947, “Development of novel anilinoquinazoline-based carboxylic acids as non-classical carbonic anhydrase IX and XII inhibitors” (Journal of Enzyme Inhibition and Medicinal Chemistry, 2023).

For the series, the system named is 59 human cancer cell lines representing nine tumour subpanels. The experiment in a line: NCI SRB assay, panel and subpanel summaries. To be noted: 10 μM, GI% higher than 20%.
As for `Cc1ccc(-c2nc(Nc3cccc(C(=O)O)c3)c3ccccc3n2)cc1` [7b, 3-((2-(p-Tolyl)quinazolin-4-yl)amino)benzoic acid], the “Number of sensitive cell lines” value was determined as 21. In the case of `COc1ccc(-c2nc(Nc3ccccc3C(=O)O)c3ccccc3n2)cc1` [6c, 2-((2–(4-Methoxyphenyl)quinazolin-4-yl)amino)benzoic acid], the “Number of sensitive cell lines” value worked out at 56.

As to `Cc1ccc(-c2nc(Nc3ccc(C(=O)O)cc3)c3ccccc3n2)cc1` [8b, 4-((2-(p-Tolyl)quinazolin-4-yl)amino)benzoic acid], the “Number of sensitive cell lines” value came out at 30. In the case of `Cc1cccc(-c2nc(Nc3ccccc3C(=O)O)c3ccccc3n2)c1` [6a, 2-((2-(m-Tolyl)quinazolin-4-yl)amino)benzoic acid], the “Number of sensitive cell lines” value came out at 56.

With `Cc1ccc(-c2nc(Nc3ccccc3C(=O)O)c3ccccc3n2)cc1` [6b, 2-((2-(p-Tolyl)quinazolin-4-yl)amino)benzoic acid], the “Number of sensitive cell lines” value was 58. `Cc1cccc(-c2nc(Nc3ccc(C(=O)O)cc3)c3ccccc3n2)c1` [8a, 4-((2-(m-Tolyl)quinazolin-4-yl)amino)benzoic acid]: the “Number of sensitive cell lines” value turned out to be 25.
